Laboratory results taken from PubChem BioAssay AID2685 (National Center for Advancing Translational Sciences (NCATS), 2010).
The list shows a part of the results. Shown are side measurements of this screen, not its main read-out; they come without a call. Compounds called inactive in the main read-out are mostly missing here. Words in brackets tell the shape of the fitted curve; partial curves, single points and poor fits give uncertain potencies.

Assay: qHTS Assay for Lipid Storage Modulators in Drosophila S3 Cells;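 on cell number change: cells counted by Cell Tracker Red CMTPX staining in the red channel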
Conditions: BODIPY lipid droplet fluorescence, 18-24 h; for cell number change: measured here: cell count max response, cells fed with added oleic acid
In short: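 Drosophila S3 cells got compounds at several concentrations plus oleic acid (400 uM solution). Laser-scanning cytometry with 488 nm excitation read lipid droplets at 500-530 nm and cells at 575-640 nm. Percent activity was relative to 20 uM Triacsin C.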

[1] = measured here: cell number channel AC50, cells fed with added oleic acid
[2] = measured here: lipid fluorescence (Fed channel) AC50, cells fed with added oleic acid

In the case of `O=C(CSc1nnc(-c2ccc(Cl)cc2Cl)n1C1CCCCC1)N1CCCC1`, the cell number change was 85.6%, the AC50 [1] was 3.26 µM [rising, full curve] and the AC50 [2] was 4.61 µM [rising, single point].

With `C/C(=N\NC(=O)CN1CCOCC1)C(C)(C)C` the cell number change was -20.7% and the AC50 [2] was 23.1 µM [falling, partial curve].

In the case of `CCOc1nc(OCC)nc(N2CCC(C)CC2)n1`, the cell number change was -84.4%.

In the case of `Cc1ccc(C(=O)Nc2cccc(C(=O)NC3CCCC3)c2)cc1`, the AC50 [2] was 18.4 µM [falling, single point].

In the case of `COc1ccc(Cc2nnc(NC(=O)Nc3ccccc3)s2)cc1OC`, the cell number change was -10.7% and the AC50 [2] was 1.84 µM [rising, single point].

With `COc1ccc(-c2nc(NC(=O)c3n[nH]c(=O)c4ccccc34)sc2C)cc1` the cell number change was 37.3%, the AC50 [1] was 13 µM [rising, partial curve] and the AC50 [2] was 20.6 µM [rising, partial curve].

With `c1ccc(CN2CCN(Cc3cn4cccnc4n3)CC2)cc1` the AC50 [1] was 0.651 µM [falling, full curve] and the AC50 [2] was 0.651 µM [falling, full curve].

With `Cc1[nH]c2ccc(-c3nnc(SCC(=O)N4CCCc5ccccc54)o3)cc2c1C` the cell number change was -0.348% and the AC50 [2] was 1.46 µM [rising, full curve, poor fit].

For `CCc1ccc(OCC(=O)N/N=C(\C)c2ccc(-n3ccnc3)cc2)cc1`, the cell number change was 24.1% and the AC50 [2] was 14.6 µM [rising, partial curve, poor fit].

For `CCC(CO)Oc1cc(NC(=O)c2ccc(F)cc2)c2ncn(C(C)C)c2c1` (stereo not given), the cell number change was 4.46% and the AC50 [2] was 1.16 µM [falling, single point].

For `CCOc1ccc(C(C(=O)NCC2CCCO2)N(C(=O)c2snc(C(N)=O)c2N)c2ccc(F)cc2)cc1` (stereo not given), the cell number change was -20.5% and the AC50 [2] was 29.1 µM [rising, single point].

With `CC(C)(C)c1ccc(C(=O)NCCC(=O)Nc2ccc(S(=O)(=O)Nc3nccs3)cc2)cc1` the cell number change was -19%.

Molecule `Cc1nnc(N2C(=O)C(=O)/C(=C(\O)c3ccc4c(c3)CC(C)O4)C2c2ccccc2)s1` (stereo not given) has a cell number change of -20.4%.

With `CC(=O)Nc1ccc(S(=O)(=O)NC2=C(N3CCN(Cc4ccccc4)CC3)C(=O)c3ccccc3C2=O)cc1` the cell number change was -38.7%, the AC50 [1] was 0.0731 µM [falling, full curve, poor fit] and the AC50 [2] was 2.91 µM [falling, partial curve, poor fit].

Molecule `CC1(C)CC(=O)C(C2C3=C(CC(C)(C)CC3=O)Oc3ccccc32)C(=O)C1` (stereo not given) has a cell number change of -14.9%.

In the case of `O=C(Nc1nccs1)c1ccc(COc2ccccc2)o1`, the cell number change was -17% and the AC50 [2] was 6.51 µM [rising, single point].

For `CCC(CC)C(=O)Nc1cc(Cl)ccc1C`, the cell number change was 47.1% and the AC50 [1] was 18.4 µM [rising, single point].

Work on `COc1ccc(-c2c(C)nc(N)nc2-c2ccc(OCc3ccc(C)cc3)cc2O)cc1OC` yielded a cell number change of 6.77%.

In the case of `O=C(CCl)Nc1cc(S(=O)(=O)N2CCCCCC2)ccc1Cl`, the cell number change was -47.3% and the AC50 [1] was 2.91 µM [falling, partial curve].

In the case of `COCC(C)n1c(C)cc(C(=O)COC(=O)c2ccc3c(c2)NC(=O)CS3)c1C` (stereo not given), the cell number change was -38% and the AC50 [2] was 20.6 µM [falling, partial curve].

Work on `COc1ccc(C(C(=O)NCC2CCCO2)N(Cc2ccco2)C(=O)c2snc(C(N)=O)c2N)cc1OC` (stereo not given) yielded a cell number change of 3.85%.

In the case of `Cc1c(C(=O)NCC(C)C)sc2nc(-c3ccc(F)cc3)cn12`, the cell number change was 116%, the AC50 [1] was 2.31 µM [rising, partial curve] and the AC50 [2] was 2.06 µM [rising, partial curve].

With `O=C(c1ccc(Cn2cc(Br)cn2)cc1)N1N=C(C(F)F)CC1(O)C(F)F` (stereo not given) the cell number change was -3.6% and the AC50 [2] was 0.00411 µM [falling, full curve, poor fit].

Molecule `CC(NC(=O)C1CCC1)c1ccc2c(c1)OCO2` (stereo not given) has a cell number change of 18.3%.

`CC1CCCC(C)N1Cc1cn2ccccc2n1` (stereo not given) showed a cell number change of 11.3%.

For `Cc1ccc(-n2nc(-c3ccco3)cc2C(=O)NCc2cccnc2)cc1`, the cell number change was 1.38% and the AC50 [2] was 0.731 µM [rising, full curve, poor fit].

For `COc1ccc(S(=O)(=O)N2CCCC(C(=O)Nc3cccc(C(C)=O)c3)C2)cc1` (stereo not given), the cell number change was -3.64%.

In the case of `O=C(COc1ccccc1Br)NCc1ccccn1`, the AC50 [1] was 6.51 µM [rising, single point].

In the case of `Clc1ccc(-c2csc(N3CCN(c4ccccc4)CC3)n2)cc1`, the cell number change was 14.5% and the AC50 [1] was 0.259 µM [falling, partial curve, poor fit].

For `Cc1c(-c2ccccc2)oc2c(C(=O)N3CCN(c4ccccc4F)CC3)cccc2c1=O`, the cell number change was 12.4% and the AC50 [2] was 14.6 µM [rising, partial curve, poor fit].

`COCC(=O)Nc1nc2ccc(S(C)(=O)=O)cc2s1` gave a cell number change of 9%.

With `CC(C)(C)OC(=O)N1CCC[C@H]1c1nnc(SCc2ccccc2F)o1` the AC50 [1] was 6.51 µM [rising, single point] and the AC50 [2] was 0.092 µM [falling, full curve, poor fit].

In the case of `CCN(CC)S(=O)(=O)c1cccc(C(=O)OCC(=O)c2ccc3c(c2)NC(=O)CO3)c1`, the cell number change was 12.4% and the AC50 [2] was 0.461 µM [rising, full curve, poor fit].

In the case of `CCOC(=O)N1CCN(C(=O)c2ccccc2NC(=O)c2ccc(C(C)(C)C)cc2)CC1`, the cell number change was -0.549% and the AC50 [2] was 0.146 µM [rising, full curve, poor fit].

In the case of `CN(CCc1ccccn1)c1ncnc2[nH]ncc12`, the AC50 [2] was 1.84 µM [rising, partial curve].

For `Cn1cc(/C=C2\SC(=S)N(NC(=O)c3ccccc3Cl)C2=O)c2ccccc21`, the cell number change was 7.29% and the AC50 [2] was 4.11 µM [rising, single point].

In the case of `O=C1NC(c2ccccc2)=C(c2ccccc2)C1=O`, the cell number change was 0.97% and the AC50 [2] was 0.0291 µM [falling, full curve, poor fit].

With `O=C(COc1ccc(Cl)cc1)OCC(=O)N1CCCCCC1` the cell number change was -9.49% and the AC50 [2] was 7.31 µM [falling, partial curve].

In the case of `CNC(=O)c1ccc(NC(=O)/C=C/c2cccc(F)c2)cc1`, the cell number change was 22.1% and the AC50 [2] was 32.6 µM [rising, single point].

In the case of `Cc1ccc(NC(=O)C(=O)c2c(-c3ccccc3)cc3ccccn23)cc1S(=O)(=O)N1CCOCC1`, the AC50 [2] was 29.1 µM [rising, partial curve].
